Results of single-concentration screens

By UniProt entry, the sequences of proteins in these tests, tags left out. Residues count along the entry.
UniProt I6X8D2, whole entry: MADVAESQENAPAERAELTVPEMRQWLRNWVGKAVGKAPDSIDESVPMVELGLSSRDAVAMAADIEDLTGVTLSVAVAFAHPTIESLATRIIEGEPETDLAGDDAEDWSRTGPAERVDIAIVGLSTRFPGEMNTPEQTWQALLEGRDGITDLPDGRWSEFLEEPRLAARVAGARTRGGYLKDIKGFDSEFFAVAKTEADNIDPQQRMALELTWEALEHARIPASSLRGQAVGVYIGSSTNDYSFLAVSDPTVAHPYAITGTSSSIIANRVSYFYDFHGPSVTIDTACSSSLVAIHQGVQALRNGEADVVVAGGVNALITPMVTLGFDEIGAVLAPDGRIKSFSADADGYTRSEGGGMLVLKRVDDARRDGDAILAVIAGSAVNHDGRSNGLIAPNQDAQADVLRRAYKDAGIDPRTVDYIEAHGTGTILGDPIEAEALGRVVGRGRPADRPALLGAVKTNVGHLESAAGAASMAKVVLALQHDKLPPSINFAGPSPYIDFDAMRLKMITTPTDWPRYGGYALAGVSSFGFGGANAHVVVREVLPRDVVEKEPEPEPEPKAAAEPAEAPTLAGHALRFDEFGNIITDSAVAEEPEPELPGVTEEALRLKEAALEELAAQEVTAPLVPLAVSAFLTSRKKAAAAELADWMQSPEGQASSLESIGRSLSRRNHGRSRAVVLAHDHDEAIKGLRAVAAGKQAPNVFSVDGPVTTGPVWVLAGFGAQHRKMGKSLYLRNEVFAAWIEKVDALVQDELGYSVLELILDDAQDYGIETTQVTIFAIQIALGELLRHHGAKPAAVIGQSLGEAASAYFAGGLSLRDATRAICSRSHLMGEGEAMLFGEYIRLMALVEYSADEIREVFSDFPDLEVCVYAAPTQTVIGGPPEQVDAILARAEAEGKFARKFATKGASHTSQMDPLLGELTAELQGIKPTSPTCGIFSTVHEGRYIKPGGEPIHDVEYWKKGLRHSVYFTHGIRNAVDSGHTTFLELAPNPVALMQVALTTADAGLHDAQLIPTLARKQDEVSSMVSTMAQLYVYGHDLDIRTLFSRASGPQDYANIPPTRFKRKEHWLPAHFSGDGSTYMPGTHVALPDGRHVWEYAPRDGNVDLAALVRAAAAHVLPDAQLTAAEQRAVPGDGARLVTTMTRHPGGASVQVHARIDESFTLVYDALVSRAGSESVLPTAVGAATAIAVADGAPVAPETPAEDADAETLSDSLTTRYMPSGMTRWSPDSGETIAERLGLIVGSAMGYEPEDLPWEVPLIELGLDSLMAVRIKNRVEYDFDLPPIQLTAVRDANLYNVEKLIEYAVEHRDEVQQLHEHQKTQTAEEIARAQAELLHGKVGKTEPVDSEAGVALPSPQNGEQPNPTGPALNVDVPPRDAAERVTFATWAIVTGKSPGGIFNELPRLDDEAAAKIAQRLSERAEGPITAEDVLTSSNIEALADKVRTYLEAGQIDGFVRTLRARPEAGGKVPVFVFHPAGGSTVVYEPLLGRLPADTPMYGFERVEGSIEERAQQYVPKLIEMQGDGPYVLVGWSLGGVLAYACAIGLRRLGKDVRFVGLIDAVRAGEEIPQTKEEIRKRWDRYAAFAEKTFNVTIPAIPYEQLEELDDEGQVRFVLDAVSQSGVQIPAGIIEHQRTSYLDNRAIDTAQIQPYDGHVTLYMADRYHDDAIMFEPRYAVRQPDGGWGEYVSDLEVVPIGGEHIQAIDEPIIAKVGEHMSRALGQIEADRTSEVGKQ
UniProt P9WFT3, whole entry: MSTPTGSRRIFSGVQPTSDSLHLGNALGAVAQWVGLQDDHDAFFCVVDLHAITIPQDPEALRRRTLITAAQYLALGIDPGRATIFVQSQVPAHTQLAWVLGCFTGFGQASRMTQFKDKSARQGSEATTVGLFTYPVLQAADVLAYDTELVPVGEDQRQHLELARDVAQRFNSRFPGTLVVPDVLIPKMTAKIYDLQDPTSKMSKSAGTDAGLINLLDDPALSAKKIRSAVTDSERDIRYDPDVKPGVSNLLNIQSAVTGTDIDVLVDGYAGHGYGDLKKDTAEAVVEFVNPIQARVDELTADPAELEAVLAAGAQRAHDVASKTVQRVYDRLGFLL
UniProt P9WNZ1, whole entry: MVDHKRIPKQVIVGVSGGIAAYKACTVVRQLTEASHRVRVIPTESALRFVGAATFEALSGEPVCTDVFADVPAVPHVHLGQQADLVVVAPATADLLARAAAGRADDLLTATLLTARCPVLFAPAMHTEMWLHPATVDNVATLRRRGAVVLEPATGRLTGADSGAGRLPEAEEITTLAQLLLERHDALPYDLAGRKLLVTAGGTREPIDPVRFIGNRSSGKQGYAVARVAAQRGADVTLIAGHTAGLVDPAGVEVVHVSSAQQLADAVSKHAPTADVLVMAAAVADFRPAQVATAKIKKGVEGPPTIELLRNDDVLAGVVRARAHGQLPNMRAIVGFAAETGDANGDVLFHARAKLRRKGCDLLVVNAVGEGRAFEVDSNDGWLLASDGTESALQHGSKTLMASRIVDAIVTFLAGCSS
UniProt Q8IDJ8, 1-583: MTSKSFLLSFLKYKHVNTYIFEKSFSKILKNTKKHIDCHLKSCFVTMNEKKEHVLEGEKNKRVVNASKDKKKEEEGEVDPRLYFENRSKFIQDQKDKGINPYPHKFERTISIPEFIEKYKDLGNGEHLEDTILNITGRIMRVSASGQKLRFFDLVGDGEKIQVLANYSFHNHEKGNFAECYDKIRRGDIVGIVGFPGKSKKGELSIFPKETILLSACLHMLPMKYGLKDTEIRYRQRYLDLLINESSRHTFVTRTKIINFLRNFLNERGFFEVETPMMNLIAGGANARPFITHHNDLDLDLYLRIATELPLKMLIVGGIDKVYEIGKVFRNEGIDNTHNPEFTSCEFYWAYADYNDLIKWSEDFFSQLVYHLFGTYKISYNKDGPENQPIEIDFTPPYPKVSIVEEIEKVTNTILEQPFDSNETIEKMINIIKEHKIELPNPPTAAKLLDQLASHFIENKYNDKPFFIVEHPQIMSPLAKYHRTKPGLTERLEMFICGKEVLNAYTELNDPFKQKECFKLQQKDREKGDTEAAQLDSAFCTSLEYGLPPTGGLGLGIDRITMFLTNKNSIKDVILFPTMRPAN

Pks13 thioesterase: 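Polyketide synthase Pks13, Mycobacterium tuberculosis (UniProt I6X8D2). Enzyme assay of the thioesterase domain of polyketide synthase 13; the read-out is not stated. Compounds at 30 µM. Higher reads as stronger inhibition (inferred from which compounds were picked for retests). Of about 67,000 compounds tested this way, about 300 (0.46%) reached 50% or more in at least one test.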
MtTrpRS: 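Tryptophan-tRNA ligase, Mycobacterium tuberculosis (UniProt P9WFT3). Enzyme assay of tryptophanyl-tRNA synthetase; the read-out is not stated. Concentration: 10 µM. Higher most likely means stronger inhibition; the record gives no direction and few retests gave an IC50. Of about 65,000 compounds tested this way, about 64 (0.098%) reached 50% or more in at least one test.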
CoaBC: 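Coenzyme A biosynthesis protein CoaBC, Mycobacterium tuberculosis (UniProt P9WNZ1). Enzyme assay of CoaBC with a phosphate dye (Biomol Green) read at 650 nm. Concentration: 30 µM. Direction is inferred from only a few compounds that gave an IC50; most scored high, so higher reads as stronger inhibition. Most strong results did not repeat in a second test. About 67,000 compounds were tested under these conditions; 0.06% (about 40) showed 50% or more at least once.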
PfKRS1: 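Enzyme assay of the cytosolic lysyl-tRNA synthetase in 384-well plates, read by luminescence. Target: Lysine-tRNA ligase, Plasmodium falciparum 3D7 (UniProt Q8IDJ8). Tested at 30 µM. Direction is inferred from only a few compounds that gave an IC50; most scored high, so higher reads as stronger inhibition. Size under these conditions: about 69,000 compounds, about 49 of them at 50% or above in at least one test.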

Values are the deposited “Percent Effect”, in %.
The record does not define 0% and 100%; most values in the screen are far below 50% and negative numbers occur (in some assays of this library far below -100).
Compounds were drawn at random from those tested, without regard to their results.
A dash means the value is not listed here; it may have been measured.

structure	Pks13 thioesterase	MtTrpRS	CoaBC	PfKRS1
Cc1ccoc1C(=O)NCCS(=O)(=O)N1CCSCC1	-14.52	-3.441	7.692	3.34
CC(=O)N1CCC(NC(=O)NCc2ncc(-c3ccccc3)o2)CC1	-27.58	-0.2101	-0.7576	4.388
O=C(NCCOc1ccc(F)c(F)c1)NCc1cccc(CO)c1	-4.101	1.935	-4.478	1.434
COc1ccc(C2CCCN2c2cnccn2)c(OC)c1 (stereo not given)	-2.575	2.854	0.4808	2.138
CCN(CC)CCNC(=O)c1ccc(Cl)c(NS(C)(=O)=O)c1	-9.255	-8.765	2.696	6.782
CC(C(=O)Nc1cnn(CC(N)=O)c1)c1ccc(Cl)s1 (stereo not given)	-34.87	-0.4836	-8.264	0.2602
O=C(CN1CCN(CC2CCOc3ccccc3C2)CC1)N1CCCC1 (stereo not given)	-23.29	-0.241	7.341	6.69
CNCc1nc(-c2ccc3c(c2)OCO3)c[nH]1	0.6942	-7.751	-35.32	7.626
Cc1noc(C)c1NC(=O)CCn1cc(Br)ccc1=O	-30.46	-3.01	-1.595	3.854
Cc1cc(CN2CCCC2)cc(Oc2nc(C)cnc2C)c1	-27.22	1.351	-1.11	5.324
Cc1nc(CN2CCCC2c2[nH]ncc2C(=O)N(C)C)cs1 (stereo not given)	-6.202	-9.805	-0.6849	1.155
Cn1c(CO)cnc1SC(C(N)=O)c1ccccc1 (stereo not given)	-16.27	-3.667	-7.2	1.997
CCc1nc(CN(C)C(=O)NC(C)c2cccc(NC(C)=O)c2)cs1 (stereo not given)	-16.67	-0.9372	1.297	8.315
Cc1cnn(CC2CN(Cc3nc4ccccc4s3)CCO2)c1 (stereo not given)	2.069	-7.146	-1.118	0.5648
O=C(CCS(=O)(=O)C1CCCC1)N1CCCC1c1ccsc1 (stereo not given)	0.1598	3.437	5.867	1.565
COc1cccc(NC(=O)Cc2c(C)nc3c(c2C)c(=O)[nH]n3C)c1	-18.44	-3.909	6.866	8.236
O=C(c1csc(-c2ncccn2)n1)N1CCN2CCCCC2C1 (stereo not given)	-19.22	-2.812	3.241	1.344
O=C(NC1CCCC1)C1CCN(c2cc(-n3ccnc3)ncn2)CC1	7.176	7.067	-6.131	9.043
CC(C)c1cc(N2CCC(N)CC2)n2nccc2n1	61.38	0.2506	-46.93	6.41
CN(C)c1ccc(C(=O)Nc2cn[nH]c2)cc1	-17.66	-0.3139	4.183	1.448
CC(C)CC(C(=O)N(C)Cc1ncnn1C)N1CCCCC1=O (stereo not given)	-36.09	-4.114	4.925	7.788
Cc1noc(C)c1NC(=O)N1CCC(NC(=O)OC(C)(C)C)CC1	19.65	-2.816	2.871	-1.403
O=C(NCc1ccco1)[C@H]1C[C@H]2OCC[C@H]2N(C(=O)c2ccnnc2)C1	-21.16	-1.862	3.083	0.6369
O=C(c1cc(-c2ccc(O)cc2)n[nH]1)N1CCCC1c1cccnc1 (stereo not given)	-12.29	-2.187	-6.746	7.987
N#Cc1cccc(OCCN2CCCC(c3noc(C4CC4)n3)C2)c1 (stereo not given)	15.77	-4.777	-4.156	6.598
CCCN1CCC(N2CCN(c3cc(C)nc(COC)n3)CC2)CC1	-3.333	-3.549	0.8783	0.6117
CCn1cc(C2=CCN(CCCOc3ccccc3)CC2)cn1	-27.84	2.374	-	1.916
O=C(NCc1ccco1)[C@@H]1COC[C@H]2CN(c3ncc(F)cn3)C[C@H]21	-19.24	-1.841	-	1.625
CNC(=O)[C@@H](c1ccccc1OC)N1CCC[C@H]1C(=O)N1CC[C@@H](O)C1	-17.82	-10.69	1.29	3.491
Cc1nnc([C@@]23CCO[C@@H]2CCN(Cc2scnc2C)C3)o1	-7.247	-	1.856	1.25
Cc1nc(N2CCN(C(=O)C(C)(C)C)CC2)cc(-n2cnc(C)c2C)n1	-11.87	1.243	13.18	0.4158
CNC(=O)c1sc2ncccc2c1C1CCN(C(=O)CCOC)C1 (stereo not given)	-	-1.632	-4.6	1.027
O=C(Cc1cccs1)N1C[C@@H]2OCCN(CC3CCCC3)[C@@H]2C1	-13.94	-3.536	3.226	3.396
CCCS(=O)(=O)N1CC(=O)N(Cc2cccc(OC)c2OC)CC(O)C1 (stereo not given)	10.66	-	-0.2421	3.531
Cn1ccnc1-c1cccc(NC(=O)NCCN2CCOCC2)c1	-15.99	3.981	6.751	2.052
CC(NC(=O)C1CCN(C(C)C)CC1)c1nncn1C1CCCC1 (stereo not given)	-14.38	-3.722	-7.613	2.662
CCc1noc(CS(=O)(=O)Cc2nc(Cc3ccccc3)no2)n1	2.613	2.23	-2.101	9.368
Cc1nnc(NCC(c2ccco2)N2CCCCC2)c(C#N)c1C (stereo not given)	-	-5.204	15.91	6.472
CC(C)[C@H]1CN(S(C)(=O)=O)C[C@@H]1NC(=O)c1ccnc(N)c1	7.418	-1.718	-1.229	4.155
Cc1nc(C(=O)N2CCCC2c2cnn(C)c2)ccc1C#N (stereo not given)	-25	2.939	-0.3817	1.07
Cc1nc([C@H]2C[C@@H]3CCN(C(=O)c4ccnnc4)C[C@H]3O2)sc1C	-37.42	5.498	5.263	-1.793
CCN(Cc1csc(CS(C)(=O)=O)n1)c1cccc(CO)c1	-27.64	-0.6189	-4.545	3.942
Cc1ccc(OCCC(=O)NC2CCc3nc(C)cn3C2)cc1 (stereo not given)	-27.45	-3.708	2.834	11.09
CN(Cc1ccncc1)C(=O)c1ccc(F)c(NS(C)(=O)=O)c1	-44.38	11.66	-	1.362
CC(C)c1noc(C(C)N2CCN(c3ccc(C#N)cn3)CC2)n1 (stereo not given)	-7.867	-6.785	2.24	-0.7822
CC(=O)N(C)CC(=O)Nc1ccc(C)cc1OCc1ccccc1	-41.46	-8.452	0.6424	3.889
Cc1ccc(C(=O)NCCC2CCN(C)CC2)cc1N(C)S(C)(=O)=O	-22.26	5.993	6.02	-1.075
O=C(NCCN1CCOCC1)c1ccn(-c2ccc3ccccn23)n1	-4.127	3.139	10.08	-0.3848
Cc1nc(CNC(=O)N(Cc2ccccc2)CC(C)(C)O)oc1C	-27.5	-2.726	1.266	6.219
O=C(CCSc1ccccc1)NCCn1nc2ccccn2c1=O	-38.63	-2.418	-5.372	0.7805
CCN(CC)CCCNCc1cc2cc(C)cc(C)c2[nH]c1=O	20.26	-1.737	-4.54	1.087
Cc1nc[nH]c1CN(Cc1ccccc1)C1CC(C)(C)NC(C)(C)C1	-1.026	2.083	-0.9569	0.5552
CS(=O)(=O)Nc1cccc(CNC(=O)CCC(=O)c2cccs2)c1	4.544	-3.673	1.572	5.77
Clc1ccc(-c2c[nH]c([C@@H]3COCCN3)n2)cc1	23.21	-3.433	11.59	3.22
CCC[C@@H]1CN(c2ncnc3ccsc23)C[C@H]1NS(C)(=O)=O	-34.45	-7.74	8.482	0.5865
O=S(=O)(c1cccnc1)N1C[C@@H]2CC[C@H](C1)N(Cc1ccccc1)C2	-6.392	0.3018	-10.08	9.553
Cc1nc(CN2CCC(N(C)Cc3noc(C4CC4)n3)C2)oc1C (stereo not given)	15.91	-1.394	0	3.342
Cc1cnn(-c2cccc(N3CCCC3)n2)c1	-21.06	-1.147	-19.68	1.576
CO[C@@H]1CC[C@H]2[C@H]1OCCN2CC1CC1	-4.518	-1.157	4.738	-3.849
Fc1cccc(C2CCCCN2Cc2nc(-c3cnccn3)no2)c1 (stereo not given)	-18.24	-1.816	0.2016	4.4
O=C(Nc1cccnc1-n1cncn1)C1CCC1	-7.171	2.781	6.22	-0.4414
CS(=O)(=O)CC(=O)N1C[C@H]2CCC[C@@]2(COCc2ccncc2)C1	-8.497	-	0.8663	4.99

3 of the entries, repeated:

| structure | Pks13 thioesterase | MtTrpRS | CoaBC | PfKRS1 |
|---|---|---|---|---|
| `Cc1nc[nH]c1CN(Cc1ccccc1)C1CC(C)(C)NC(C)(C)C1` | -1.026 | 2.083 | -0.9569 | 0.5552 |
| `Cc1nc(N2CCN(C(=O)C(C)(C)C)CC2)cc(-n2cnc(C)c2C)n1` | -11.87 | 1.243 | 13.18 | 0.4158 |
| `COc1ccc(C2CCCN2c2cnccn2)c(OC)c1` (stereo not given) | -2.575 | 2.854 | 0.4808 | 2.138 |

Data taken from ChEMBL document CHEMBL3988442, “University of Dundee, Small-Polar-MMV Screening Library” (2021).